Assay in all cases: affinity purification with mass spectrometry
Assay [1] deals with full-length Halo-tagged human TET1 (human), Q8NFU7. The note with it: remark: other sources report otherwise.
Assay [2] has as its target full-length Halo-tagged human TET2 (human) (UniProt Q6N021).
Assay [3] concerns the target full-length Halo-tagged human TET3 (human) (UniProt O43151).
Assay [4] addresses T1, full-length Halo-tagged human TET3 (human), O43151.
T1 chain: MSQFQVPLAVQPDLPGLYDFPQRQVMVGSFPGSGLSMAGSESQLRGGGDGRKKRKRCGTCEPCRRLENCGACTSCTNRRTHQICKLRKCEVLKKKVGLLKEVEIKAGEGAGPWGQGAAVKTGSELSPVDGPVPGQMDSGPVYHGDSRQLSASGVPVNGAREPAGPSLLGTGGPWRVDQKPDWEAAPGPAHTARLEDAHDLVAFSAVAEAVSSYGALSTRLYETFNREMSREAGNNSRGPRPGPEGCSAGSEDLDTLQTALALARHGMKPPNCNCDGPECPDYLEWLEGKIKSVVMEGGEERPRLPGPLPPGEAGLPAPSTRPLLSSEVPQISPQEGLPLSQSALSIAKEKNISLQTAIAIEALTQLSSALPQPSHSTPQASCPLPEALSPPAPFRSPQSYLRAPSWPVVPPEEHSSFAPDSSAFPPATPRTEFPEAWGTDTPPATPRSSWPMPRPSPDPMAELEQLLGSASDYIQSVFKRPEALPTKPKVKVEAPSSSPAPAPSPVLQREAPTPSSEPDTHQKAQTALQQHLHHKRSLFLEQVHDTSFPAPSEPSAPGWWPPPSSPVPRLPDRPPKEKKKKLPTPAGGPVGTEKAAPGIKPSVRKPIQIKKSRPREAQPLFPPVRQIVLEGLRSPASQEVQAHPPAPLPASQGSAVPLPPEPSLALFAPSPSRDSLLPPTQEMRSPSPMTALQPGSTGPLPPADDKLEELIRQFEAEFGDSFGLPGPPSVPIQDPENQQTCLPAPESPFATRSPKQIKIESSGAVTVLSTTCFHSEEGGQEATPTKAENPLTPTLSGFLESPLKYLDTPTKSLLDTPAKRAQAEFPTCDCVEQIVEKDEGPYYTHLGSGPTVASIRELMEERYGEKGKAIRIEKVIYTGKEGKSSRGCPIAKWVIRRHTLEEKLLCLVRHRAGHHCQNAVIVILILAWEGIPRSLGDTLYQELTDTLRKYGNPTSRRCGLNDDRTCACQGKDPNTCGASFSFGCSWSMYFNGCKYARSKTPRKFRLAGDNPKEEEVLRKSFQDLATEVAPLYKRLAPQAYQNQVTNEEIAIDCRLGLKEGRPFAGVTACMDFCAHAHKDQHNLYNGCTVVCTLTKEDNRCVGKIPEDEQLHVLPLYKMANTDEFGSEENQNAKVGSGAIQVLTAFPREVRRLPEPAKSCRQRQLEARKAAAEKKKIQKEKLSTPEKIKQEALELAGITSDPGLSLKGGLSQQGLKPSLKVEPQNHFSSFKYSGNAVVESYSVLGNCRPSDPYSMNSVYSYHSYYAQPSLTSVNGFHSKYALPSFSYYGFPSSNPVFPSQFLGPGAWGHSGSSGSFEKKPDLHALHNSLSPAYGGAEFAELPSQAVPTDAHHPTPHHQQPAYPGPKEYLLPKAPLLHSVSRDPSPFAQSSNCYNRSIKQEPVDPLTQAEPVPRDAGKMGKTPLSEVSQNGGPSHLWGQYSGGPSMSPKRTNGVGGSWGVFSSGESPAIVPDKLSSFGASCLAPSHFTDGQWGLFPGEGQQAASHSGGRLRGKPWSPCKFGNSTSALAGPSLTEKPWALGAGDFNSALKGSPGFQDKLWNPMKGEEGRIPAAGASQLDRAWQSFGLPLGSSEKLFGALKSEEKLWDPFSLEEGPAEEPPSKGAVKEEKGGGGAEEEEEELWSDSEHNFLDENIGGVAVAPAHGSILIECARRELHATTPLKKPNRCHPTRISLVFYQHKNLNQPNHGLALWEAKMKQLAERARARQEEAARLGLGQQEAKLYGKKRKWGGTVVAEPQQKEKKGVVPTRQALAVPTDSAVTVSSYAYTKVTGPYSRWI
The note with it: remark: other sources report otherwise.

This note sets out measurements from paper doi:10.1101/2020.03.10.983148.

Results are given in words; binding and its absence hold for the method and conditions named. Binding seen in cells or lysates may run through a third protein. A yes stands for co-enrichment or nearness to the bait. Other partners may have been found. For some of these results: Sequences can lack the tags named with a protein.

B1: OGT, endogenous in HEK293T cells, O15294 1-1046 (enzyme)
chain: MASSVGNVADSTEPTKRMLSFQGLAELAHREYQAGDFEAAERHCMQLWRQEPDNTGVLLLLSSIHFQCRRLDRSAHFSTLAIKQNPLLAEAYSNLGNVYKERGQLQEAIEHYRHALRLKPDFIDGYINLAAALVAAGDMEGAVQAYVSALQYNPDLYCVRSDLGNLLKALGRLEEAKACYLKAIETQPNFAVAWSNLGCVFNAQGEIWLAIHHFEKAVTLDPNFLDAYINLGNVLKEARIFDRAVAAYLRALSLSPNHAVVHGNLACVYYEQGLIDLAIDTYRRAIELQPHFPDAYCNLANALKEKGSVAEAEDCYNTALRLCPTHADSLNNLANIKREQGNIEEAVRLYRKALEVFPEFAAAHSNLASVLQQQGKLQEALMHYKEAIRISPTFADAYSNMGNTLKEMQDVQGALQCYTRAIQINPAFADAHSNLASIHKDSGNIPEAIASYRTALKLKPDFPDAYCNLAHCLQIVCDWTDYDERMKKLVSIVADQLEKNRLPSVHPHHSMLYPLSHGFRKAIAERHGNLCLDKINVLHKPPYEHPKDLKLSDGRLRVGYVSSDFGNHPTSHLMQSIPGMHNPDKFEVFCYALSPDDGTNFRVKVMAEANHFIDLSQIPCNGKAADRIHQDGIHILVNMNGYTKGARNELFALRPAPIQAMWLGYPGTSGALFMDYIITDQETSPAEVAEQYSEKLAYMPHTFFIGDHANMFPHLKKKAVIDFKSNGHIYDNRIVLNGIDLKAFLDSLPDVKIVKMKCPDGGDNADSSNTALNMPVIPMNTIAEAVIEMINRGQIQITINGFSISNGLATTQINNKAATGEEVPRTIIVTTRSQYGLPEDAIVYCNFNQLYKIDPSTLQMWANILKRVPNSVLWLLRFPAVGEPNIQQYAQNMGLPQNRIIFSPVAPKEEHVRRGQLADVCLDTPLCNGHTTGMDVLWAGTPMVTMPGETLASRVAASQLTCLGCLELIAKNRQEYEDIAVKLGTDLEYLKKVRGKVWKQRISSPLFNTKQYTMELERLYLQMWEHYAAGNKPDHMIKPVEVTESA
As to B1, the binding result in assay [1] was “binds”.

B2: OGT, endogenous in HEK293T cells (enzyme, UniProt O15294 1-1046)
chain: MASSVGNVADSTEPTKRMLSFQGLAELAHREYQAGDFEAAERHCMQLWRQEPDNTGVLLLLSSIHFQCRRLDRSAHFSTLAIKQNPLLAEAYSNLGNVYKERGQLQEAIEHYRHALRLKPDFIDGYINLAAALVAAGDMEGAVQAYVSALQYNPDLYCVRSDLGNLLKALGRLEEAKACYLKAIETQPNFAVAWSNLGCVFNAQGEIWLAIHHFEKAVTLDPNFLDAYINLGNVLKEARIFDRAVAAYLRALSLSPNHAVVHGNLACVYYEQGLIDLAIDTYRRAIELQPHFPDAYCNLANALKEKGSVAEAEDCYNTALRLCPTHADSLNNLANIKREQGNIEEAVRLYRKALEVFPEFAAAHSNLASVLQQQGKLQEALMHYKEAIRISPTFADAYSNMGNTLKEMQDVQGALQCYTRAIQINPAFADAHSNLASIHKDSGNIPEAIASYRTALKLKPDFPDAYCNLAHCLQIVCDWTDYDERMKKLVSIVADQLEKNRLPSVHPHHSMLYPLSHGFRKAIAERHGNLCLDKINVLHKPPYEHPKDLKLSDGRLRVGYVSSDFGNHPTSHLMQSIPGMHNPDKFEVFCYALSPDDGTNFRVKVMAEANHFIDLSQIPCNGKAADRIHQDGIHILVNMNGYTKGARNELFALRPAPIQAMWLGYPGTSGALFMDYIITDQETSPAEVAEQYSEKLAYMPHTFFIGDHANMFPHLKKKAVIDFKSNGHIYDNRIVLNGIDLKAFLDSLPDVKIVKMKCPDGGDNADSSNTALNMPVIPMNTIAEAVIEMINRGQIQITINGFSISNGLATTQINNKAATGEEVPRTIIVTTRSQYGLPEDAIVYCNFNQLYKIDPSTLQMWANILKRVPNSVLWLLRFPAVGEPNIQQYAQNMGLPQNRIIFSPVAPKEEHVRRGQLADVCLDTPLCNGHTTGMDVLWAGTPMVTMPGETLASRVAASQLTCLGCLELIAKNRQEYEDIAVKLGTDLEYLKKVRGKVWKQRISSPLFNTKQYTMELERLYLQMWEHYAAGNKPDHMIKPVEVTESA
As to B2, the binding result in assay [2] and in assay [3] was “binds” each time.

B3: SIN3A, endogenous in HEK293T cells, Q96ST3 1-1273 (protein)
chain: MKRRLDDQESPVYAAQQRRIPGSTEAFPHQHRVLAPAPPVYEAVSETMQSATGIQYSVTPSYQVSAMPQSSGSHGPAIAAVHSSHHHPTAVQPHGGQVVQSHAHPAPPVAPVQGQQQFQRLKVEDALSYLDQVKLQFGSQPQVYNDFLDIMKEFKSQSIDTPGVISRVSQLFKGHPDLIMGFNTFLPPGYKIEVQTNDMVNVTTPGQVHQIPTHGIQPQPQPPPQHPSQPSAQSAPAPAQPAPQPPPAKVSKPSQLQAHTPASQQTPPLPPYASPRSPPVQPHTPVTISLGTAPSLQNNQPVEFNHAINYVNKIKNRFQGQPDIYKAFLEILHTYQKEQRNAKEAGGNYTPALTEQEVYAQVARLFKNQEDLLSEFGQFLPDANSSVLLSKTTAEKVDSVRNDHGGTVKKPQLNNKPQRPSQNGCQIRRHPTGTTPPVKKKPKLLNLKDSSMADASKHGGGTESLFFDKVRKALRSAEAYENFLRCLVIFNQEVISRAELVQLVSPFLGKFPELFNWFKNFLGYKESVHLETYPKERATEGIAMEIDYASCKRLGSSYRALPKSYQQPKCTGRTPLCKEVLNDTWVSFPSWSEDSTFVSSKKTQYEEHIYRCEDERFELDVVLETNLATIRVLEAIQKKLSRLSAEEQAKFRLDNTLGGTSEVIHRKALQRIYADKAADIIDGLRKNPSIAVPIVLKRLKMKEEEWREAQRGFNKVWREQNEKYYLKSLDHQGINFKQNDTKVLRSKSLLNEIESIYDERQEQATEENAGVPVGPHLSLAYEDKQILEDAAALIIHHVKRQTGIQKEDKYKIKQIMHHFIPDLLFAQRGDLSDVEEEEEEEMDVDEATGAVKKHNGVGGSPPKSKLLFSNTAAQKLRGMDEVYNLFYVNNNWYIFMRLHQILCLRLLRICSQAERQIEEENREREWEREVLGIKRDKSDSPAIQLRLKEPMDVDVEDYYPAFLDMVRSLLDGNIDSSQYEDSLREMFTIHAYIAFTMDKLIQSIVRQLQHIVSDEICVQVTDLYLAENNNGATGGQLNTQNSRSLLESTYQRKAEQLMSDENCFKLMFIQSQGQVQLTIELLDTEEENSDDPVEAERWSDYVERYMNSDTTSPELREHLAQKPVFLPRNLRRIRKCQRGREQQEKEGKEGNSKKTMENVDSLDKLECRFKLNSYKMVYVIKSEDYMYRRTALLRAHQSHERVSKRLHQRFQAWVDKWTKEHVPREMAAETSKWLMGEGLEGLVPCTTTCDTETLHFVSINKYRVKYGTVFKAP
With B3, the binding entry in assay [4] was “binds”.
